# These are yes or no findings as the source states them, for the method shown. In cells and extracts the contact can be indirect. A yes stands for co-enrichment or nearness to the bait. Other partners may have been found. For part of these data: No binding means not detected with the bait.
# By UniProt entry, the sequences of proteins in these tests, tags left out.
# UniProt P42945: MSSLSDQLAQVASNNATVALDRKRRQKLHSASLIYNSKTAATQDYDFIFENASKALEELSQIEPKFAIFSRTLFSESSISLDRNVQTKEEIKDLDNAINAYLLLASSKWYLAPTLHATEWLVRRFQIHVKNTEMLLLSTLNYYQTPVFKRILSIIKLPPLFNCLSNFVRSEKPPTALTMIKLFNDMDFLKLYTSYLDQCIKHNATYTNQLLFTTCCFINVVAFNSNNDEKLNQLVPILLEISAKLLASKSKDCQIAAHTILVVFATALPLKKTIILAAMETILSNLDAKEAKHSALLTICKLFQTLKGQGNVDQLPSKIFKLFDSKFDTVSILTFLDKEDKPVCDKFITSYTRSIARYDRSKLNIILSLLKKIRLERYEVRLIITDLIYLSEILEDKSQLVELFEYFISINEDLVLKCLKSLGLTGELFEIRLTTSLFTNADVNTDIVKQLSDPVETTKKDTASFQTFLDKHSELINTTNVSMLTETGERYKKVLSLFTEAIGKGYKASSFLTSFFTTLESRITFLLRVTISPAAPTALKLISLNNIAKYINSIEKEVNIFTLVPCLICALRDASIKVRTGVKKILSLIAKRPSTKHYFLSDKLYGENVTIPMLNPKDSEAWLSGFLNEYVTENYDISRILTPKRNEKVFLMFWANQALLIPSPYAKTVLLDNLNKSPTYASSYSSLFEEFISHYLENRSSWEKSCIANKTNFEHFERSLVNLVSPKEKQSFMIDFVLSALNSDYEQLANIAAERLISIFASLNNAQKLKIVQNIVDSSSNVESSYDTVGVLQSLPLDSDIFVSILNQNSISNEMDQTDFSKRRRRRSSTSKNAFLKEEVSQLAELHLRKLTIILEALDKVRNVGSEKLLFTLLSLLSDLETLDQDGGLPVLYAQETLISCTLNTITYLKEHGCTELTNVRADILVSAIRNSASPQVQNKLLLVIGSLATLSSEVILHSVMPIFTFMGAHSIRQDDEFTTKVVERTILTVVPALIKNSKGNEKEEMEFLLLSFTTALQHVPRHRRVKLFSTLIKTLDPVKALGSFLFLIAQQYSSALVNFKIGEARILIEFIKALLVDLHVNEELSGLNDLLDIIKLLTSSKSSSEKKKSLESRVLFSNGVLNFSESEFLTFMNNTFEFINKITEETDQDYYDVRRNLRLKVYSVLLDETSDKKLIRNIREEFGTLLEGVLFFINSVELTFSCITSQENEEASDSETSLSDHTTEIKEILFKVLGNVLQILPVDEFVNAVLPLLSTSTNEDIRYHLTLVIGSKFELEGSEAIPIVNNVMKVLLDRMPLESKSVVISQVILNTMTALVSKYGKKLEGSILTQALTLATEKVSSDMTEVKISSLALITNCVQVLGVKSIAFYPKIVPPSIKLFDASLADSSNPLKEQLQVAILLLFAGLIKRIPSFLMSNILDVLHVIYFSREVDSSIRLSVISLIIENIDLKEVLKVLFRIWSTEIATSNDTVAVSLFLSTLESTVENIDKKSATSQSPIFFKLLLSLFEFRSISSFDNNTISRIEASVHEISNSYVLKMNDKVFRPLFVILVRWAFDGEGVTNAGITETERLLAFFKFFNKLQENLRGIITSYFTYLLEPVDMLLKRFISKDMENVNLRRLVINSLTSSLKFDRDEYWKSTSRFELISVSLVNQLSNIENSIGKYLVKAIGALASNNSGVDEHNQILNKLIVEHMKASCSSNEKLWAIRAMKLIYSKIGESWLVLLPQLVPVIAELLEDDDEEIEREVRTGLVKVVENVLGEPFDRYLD
# UniProt P20448: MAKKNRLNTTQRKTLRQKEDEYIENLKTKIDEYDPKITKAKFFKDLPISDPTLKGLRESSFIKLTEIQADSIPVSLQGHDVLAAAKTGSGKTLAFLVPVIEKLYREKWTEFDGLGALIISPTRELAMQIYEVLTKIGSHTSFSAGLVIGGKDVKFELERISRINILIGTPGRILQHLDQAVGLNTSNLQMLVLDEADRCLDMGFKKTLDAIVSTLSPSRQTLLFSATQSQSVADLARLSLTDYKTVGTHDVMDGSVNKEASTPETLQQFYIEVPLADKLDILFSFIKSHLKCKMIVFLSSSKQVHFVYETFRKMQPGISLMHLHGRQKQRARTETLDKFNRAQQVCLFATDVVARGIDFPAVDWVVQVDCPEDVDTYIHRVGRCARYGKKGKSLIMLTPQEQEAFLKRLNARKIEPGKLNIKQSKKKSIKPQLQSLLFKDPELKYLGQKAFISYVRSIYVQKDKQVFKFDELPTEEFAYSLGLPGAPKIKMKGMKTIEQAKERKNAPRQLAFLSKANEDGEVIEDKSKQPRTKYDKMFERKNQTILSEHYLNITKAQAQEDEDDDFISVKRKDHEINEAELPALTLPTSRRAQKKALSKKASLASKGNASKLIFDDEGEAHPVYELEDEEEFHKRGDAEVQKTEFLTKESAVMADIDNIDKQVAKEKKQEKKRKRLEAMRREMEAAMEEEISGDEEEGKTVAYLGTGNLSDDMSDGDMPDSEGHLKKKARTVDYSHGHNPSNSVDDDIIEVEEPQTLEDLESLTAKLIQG
# Experiments:
# [1] = target: Utp10 with a C-terminal streptavidin-binding-peptide tag (S. cerevisiae) (UniProt P42945); test: affinity purification with mass spectrometry; truncated pre-rRNA mimic lacking the central domain (5' ETS-18S Δ central) in strain Y186; tandem purification by MS2-3C-GFP then Utp10-SBP on streptavidin resin; label-free quantification against 5' ETS-18S 3' minor
# [2] = target: Utp10 with a C-terminal streptavidin-binding-peptide tag (S. cerevisiae) (UniProt P42945); test: affinity purification with mass spectrometry; particles on MS2-tagged 5' ETS, 5' ETS-18S 5'-domain and 5' ETS-18S central-domain mimics in strain Y186; tandem purification by MS2-3C-GFP (anti-GFP nanobody beads, 3C elution) then Utp10-SBP on streptavidin resin, biotin elution; 50 mM Tris-HCl pH 7.5, 150 mM NaCl, 5 mM MgCl2, 4°C
# [3] = target: Utp10 with a C-terminal streptavidin-binding-peptide tag (S. cerevisiae) (UniProt P42945); test: affinity purification with mass spectrometry; truncated pre-rRNA mimic with the 5' ETS and all 18S subdomains (5' ETS-18S 3' minor) in strain Y186; tandem purification by MS2-3C-GFP then Utp10-SBP on streptavidin resin; label-free quantification against the mimic lacking the central domain
# [4] = target: Utp10 with a C-terminal streptavidin-binding-peptide tag (S. cerevisiae) (UniProt P42945); test: condition: only with the pre-rRNA mimic lacking the central domain; affinity purification with mass spectrometry; truncated pre-rRNA mimic lacking the central domain (5' ETS-18S Δ central) in strain Y186; tandem purification by MS2-3C-GFP then Utp10-SBP on streptavidin resin; label-free quantification against 5' ETS-18S 3' minor
binding [1],Molecule,further results
binds,Dbp4 (from UniProt P20448 1-770),–
binds,"Esf1 (protein, UniProt Q06344 1-628) MAGENPKKEGVDARFAGIYSDPKFKNTKTKDHKIKLDSRFSKKDLEVQHKSKVDKYGRKIKNAQNNRELEDFDKYFEKEAENDEDSEVNAKTVVDRARGEVPDDYVSSSDEFTSSDSESSGESEVESEEENEVEIENAKPESGDISKNLAVVNLDWDHVKSEDLMITFSSFVPKGGKIERVAIYPSEFGKERMQREEVEGPPKELFQKKNKNKTSKKKKTDDSDSDMDIGIKDLYEEGDADKDVDSRALRQYQLDRLRYYYAIVYCSDTTTSKAIYDNCDGTEYESTANMFDLRYVPDGMTFDDDVRDECSILPKNYRPHQFSTDALQHSSVKLTWDETPADRVEVAKRAFTQKEIDDMDFKAYLASDSDESDGQVDEEAKNKLKSLVGDFGFNSKKETPNDEDEEVDMEITFTPALEGGNEKSSEDKEETTIEKIRRKEKERRKARKQKVKELKQQSEKDKKSKLKSVNKKHTNDEEEIEKNAKSKAELELLMDDDDDTETQGTINNKAHFNMNEILRSEKEKHKKGRYQKKERIVEDTFTPDLEDPRFKEVFEDHDFAIDPTQPEFKGTQAMSKILKERSKRVKNKKRKLGGSENNMTNNADDNEDIGNLVNKLKKKSKSSKKVKV",–
binds,"Cms1 (protein, UniProt Q07897 1-291) MSNPDDLDDGLAYDFDAEHEVIFDAKDGSPPTKKVQKRSIEQDDDDVDDIDGKKEERNSEDDSNRPISKRQKKLQKKSKLIEKKKEESQYIVSQRKALPASSPEKIIEYLTTLIREKNPDLSVLELEELYFKRNDFLSTEKFDAERRLSNFPAFIQKFSVAPKKIVFSMSNIRVADVYRSLNGGKNCVKLFSKSKLKDDIATVERLLTDSSKKSNKNKDSLYFIATPTRMQKIIEATDLLFQGKEKLDIILDASYLDPKDNTILSFENAAVLCQVLKTFLNKKSSVKILLY",–
binds,"Efg1 (protein, UniProt Q3E705 1-233) MAKLQRKRSKALGSSLEMSQIMDAGTNKIKRRIRDLERLLKKKKDILPSTVIIEKERNLQALRLELQNNELKNKIKANAKKYHMVRFFEKKKALRKYNRLLKKIKESGADDKDLQQKLRATKIELCYVINFPKTEKYIALYPNDTPSTDPKGVELTNLRREQFLKLVAERMDANTLNVSFEEILKGKKLDEDSIGLTLSPDKDHEDGSQVSPTQDRKELDQVVGEDEKDDFFE",–
–,"Imp4 (protein, UniProt P53941 1-290) MLRRQARERREYLYRKAQELQDSQLQQKRQIIKQALAQGKPLPKELAEDESLQKDFRYDQSLKESEEADDLQVDDEYAATSGIMDPRIIVTTSRDPSTRLSQFAKEIKLLFPNAVRLNRGNYVMPNLVDACKKSGTTDLVVLHEHRGVPTSLTISHFPHGPTAQFSLHNVVMRHDIINAGNQSEVNPHLIFDNFTTALGKRVVCILKHLFNAGPKKDSERVITFANRGDFISVRQHVYVRTREGVEIAEVGPRFEMRLFELRLGTLENKDADVEWQLRRFIRTANKKDYL",binding [2]: binds
–,"Bud21 (protein, UniProt Q08492 1-214) MSNGHVKFDADESQASASAVTDRQDDVLVISKKDKEVHSSSDEESDDDDAPQEEGLHSGKSEVESQITQREEAIRLEQSQLRSKRRKQNELYAKQKKSVNETEVTDEVIAELPEELLKNIDQKDEGSTQYSSSRHVTFDKLDESDENEEALAKAIKTKKRKTLKNLRKDSVKRGKFRVQLLSTTQDSKTLPPKKESSIIRSKDRWLNRKALNKG",binding [2]: binds
–,"Bms1 (protein, UniProt Q08965 1-1183) MEQSNKQHRKAKEKNTAKKKLHTQGHNAKAFAVAAPGKMARTMQRSSDVNERKLHVPMVDRTPEDDPPPFIVAVVGPPGTGKTTLIRSLVRRMTKSTLNDIQGPITVVSGKHRRLTFLECPADDLNAMIDIAKIADLVLLLIDGNFGFEMETMEFLNIAQHHGMPRVLGVATHLDLFKSQSTLRASKKRLKHRFWTEVYQGAKLFYLSGVINGRYPDREILNLSRFISVMKFRPLKWRNEHPYMLADRFTDLTHPELIETQGLQIDRKVAIYGYLHGTPLPSAPGTRVHIAGVGDFSVAQIEKLPDPCPTPFYQQKLDDFEREKMKEEAKANGEITTASTTRRRKRLDDKDKLIYAPMSDVGGVLMDKDAVYIDIGKKNEEPSFVPGQERGEGEKLMTGLQSVEQSIAEKFDGVGLQLFSNGTELHEVADHEGMDVESGEESIEDDEGKSKGRTSLRKPRIYGKPVQEEDADIDNLPSDEEPYTNDDDVQDSEPRMVEIDFNNTGEQGAEKLALETDSEFEESEDEFSWERTAANKLKKTESKKRTWNIGKLIYMDNISPEECIRRWRGEDDDSKDESDIEEDVDDDFFRKKDGTVTKEGNKDHAVDLEKFVPYFDTFEKLAKKWKSVDAIKERFLGAGILGNDNKTKSDSNEGGEELYGDFEDLEDGNPSEQAEDNSDKESEDEDENEDTNGDDDNSFTNFDAEEKKDLTMEQEREMNAAKKEKLRAQFEIEEGENFKEDDENNEYDTWYELQKAKISKQLEINNIEYQEMTPEQRQRIEGFKAGSYVRIVFEKVPMEFVKNFNPKFPIVMGGLLPTEIKFGIVKARLRRHRWHKKILKTNDPLVLSLGWRRFQTLPIYTTTDSRTRTRMLKYTPEHTYCNAAFYGPLCSPNTPFCGVQIVANSDTGNGFRIAATGIVEEIDVNIEIVKKLKLVGFPYKIFKNTAFIKDMFSSAMEVARFEGAQIKTVSGIRGEIKRALSKPEGHYRAAFEDKILMSDIVILRSWYPVRVKKFYNPVTSLLLKEKTEWKGLRLTGQIRAAMNLETPSNPDSAYHKIERVERHFNGLKVPKAVQKELPFKSQIHQMKPQKKKTYMAKRAVVLGGDEKKARSFIQKVLTISKAKDSKRKEQKASQRKERLKKLAKMEEEKSQRDKEKKKEYFAQNGKRTTMGGDDESRPRKMRR",binding [3]: binds; binding [4]: no binding
binds,"Esf2 (protein, UniProt P53743 1-316) MSEKVNSDFEDFSSDEETDQHNVLIQTKKKISSKDDIFSKKVEDIESENESDIEEEQKQEEKEDVEQPDKENGEKLDREVEEQASSTTSLDLKTEKLRQLVKSKAAKKSKHKTGVVYFSSIPPYMKPAKMRQILTRFGEVDRLFLKKEDDQKYKQRVKGGGNKKNKYEEGWAEFIRKRDAKLCAETLNGNIIGGKKGTFYHDDILNVKYLPGFKWADLTEQIARENDIRQAKLEMEISQANKLNAEFIRNVEQSKMIQNIKNSRKRAGKEGESADSHPHREFKQRRVETSRANAPSDIKQQSSGSKDLGNVLTNLL",–
binds,"Nop6 (protein, UniProt Q07623 1-225) MGSEEDKKLTKKQLKAQQFRKSKEEKDQEKDVKKEQAPEGKRPNSAAGNDGEEPVKKKRKTRRGRGGKGKNGKKGNRFIVFVGSLPRDITAVELQNHFKNSSPDQIRLRADKGIAFLEFDADKDRTGIQRRMDIALLQHGTLLKEKKINVELTVGGGGNSQERLEKLKNKNIKLDEERKERLTKMINDGNQKKIAKTTATAAQTSGTDNKPVPAGIHPDRAKLLK",–
–,"Mpp10 (protein, UniProt P47083 1-593) MSELFGVLKSNAGRIILKDPSATSKDVKAYIDSVINTCKNGSITKKAELDEITVDGLDANQVWWQVKLVLDSIDGDLIQGIQELKDVVTPSHNLSDGSTLNSSSGEESELEEAESVFKEKQMLSADVSEIEEQSNDSLSENDEEPSMDDEKTSAEAAREEFAEEKRISSGQDERHSSPDPYGINDKFFDLEKFNRDTLAAEDSNEASEGSEDEDIDYFQDMPSDDEEEEAIYYEDFFDKPTKEPVKKHSDVKDPKEDEELDEEEHDSAMDKVKLDLFADEEDEPNAEGVGEASDKNLSSFEKQQIEIRKQIEQLENEAVAEKKWSLKGEVKAKDRPEDALLTEELEFDRTAKPVPVITSEVTESLEDMIRRRIQDSNFDDLQRRTLLDITRKSQRPQFELSDVKSSKSLAEIYEDDYTRAEDESALSEELQKAHSEISELYANLVYKLDVLSSVHFVPKPASTSLEIRVETPTISMEDAQPLYMSNASSLAPQEIYNVGKAEKDGEIRLKNGVAMSKEELTREDKNRLRRALKRKRSKANLPNVNKRSKRNDVVDTLSKAKNITVINQKGEKKDVSGKTKKSRSGPDSTNIKL",binding [2]: binds
binds,"Dbp8 (protein, UniProt P38719 1-431) MADFKSLGLSKWLTESLRAMKITQPTAIQKACIPKILEGRDCIGGAKTGSGKTIAFAGPMLTKWSEDPSGMFGVVLTPTRELAMQIAEQFTALGSSMNIRVSVIVGGESIVQQALDLQRKPHFIIATPGRLAHHIMSSGDDTVGGLMRAKYLVLDEADILLTSTFADHLATCISALPPKDKRQTLLFTATITDQVKSLQNAPVQKGKPPLFAYQVESVDNVAIPSTLKIEYILVPEHVKEAYLYQLLTCEEYENKTAIIFVNRTMTAEILRRTLKQLEVRVASLHSQMPQQERTNSLHRFRANAARILIATDVASRGLDIPTVELVVNYDIPSDPDVFIHRSGRTARAGRIGDAISFVTQRDVSRIQAIEDRINKKMTETNKVHDTAVIRKALTKVTKAKRESLMAMQKENFGERKRQQKKKQNDGKSLRS",–
